Survivor count and T/C data for 34 molecules are collected here from PubChem BioAssay AID330 (DTP/NCI, 2004).

SMILES strings stand for the structures. The list does not hold the whole screen: it is rich in T/C values a quarter to a half above the control, in often repeated tests (any T/C) and in doses without a T/C. Other doses and runs of a compound stand elsewhere. T/C gives the treated animals as a percentage of the vehicle group. Some entries give survivors of the animals treated and no T/C: the source holds a T/C of zero for them, seemingly a mark for toxic or unscored doses. Some doses without a T/C left all or most animals alive at the check, yet need not have been tolerated: survival well below the control is almost never listed, so the zero probably covers shortened survival too. Counts of survivors are from the toxicity check (mostly the fifth day) where no day follows; animals may have died later. Schedule codes are those of the source, taken here to give the interval after Q, in days (D) or hours (H), and the number of doses after X. Some structures stand for samples that the source files as different forms (salt, stereo form or complex); doses refer to the form tested. Where survival is the endpoint, the PubChem record calls one and a half times the control and up active, and a quarter to a half above the control has no call in these data; cut-offs in other NCI protocols can differ. Some entries were tested several times; the results are listed from low to high. Some T/C values carry the count of animals alive at the toxicity check (mostly the fifth day); without a count, all were alive then.

The test system of this assay is P388 leukemia ip, CD2F1 mice, survival T/C. The experiment in a line: NCI In Vivo Anticancer Drug Screen. Data for tumor model P388 Leukemia (intraperitoneal) in CD2F1 (CDF1) mice. The settings on record: T/C endpoint: median survival time, higher T/C = longer survival.
Where [1] appears, read: dose: 100.0 mg/kg/injection, schedule: Q04DX002 (ip), vehicle: saline with Tween-80.
Setting [2] is: dose: 200.0 mg/kg/injection, schedule: Q04DX002 (ip), vehicle: saline with Tween-80.
Setting [3] is: dose: 400.0 mg/kg/injection, schedule: Q04DX002 (ip), vehicle: saline with Tween-80.
Where [4] appears, read: dose: 200.0 mg/kg/injection, schedule: Q01DX005 (ip), vehicle: saline with Tween-80.
[5] abbreviates: dose: 200.0 mg/kg/injection, schedule: Q01DX009 (ip), vehicle: saline with Tween-80.
Where [6] appears, read: dose: 25.0 mg/kg/injection, schedule: Q01DX009 (ip), vehicle: saline with Tween-80.
Setting [7] is: dose: 240.0 mg/kg/injection, schedule: Q01DX005 (ip), vehicle: saline with Tween-80.
The mark [8] stands for this setting: dose: 240.0 mg/kg/injection, schedule: Q01DX005 (ip), vehicle: Klucel + Tween-80.
The mark [9] stands for this setting: dose: 200.0 mg/kg/injection, schedule: Q01DX005 (ip), vehicle: saline.
Setting [10] is: dose: 50.0 mg/kg/injection, schedule: Q01DX005 (ip), vehicle: saline with Tween-80.
Where [11] appears, read: dose: 6.25 mg/kg/injection, schedule: Q01DX009 (ip), vehicle: saline.

In the case of `C[Se]C(C)(C)C(O)(Cc1ccccc1)c1ccccc1` (stereo not drawn), the survivor count runs as follows: under setting [1], 0 of 6; under setting [2], 0 of 6; under setting [3], 0 of 6.

`CCOC(=O)C1=C(Nc2ccc(OC)cc2)C(N)=NC1=N`: the T/C (dose: 50.0 mg/kg/injection, schedule: Q01DX009 (ip), vehicle: suspension in saline) is 144 % of control. In addition, under “dose: 200.0 mg/kg/injection, schedule: Q01DX009 (ip), vehicle: suspension in saline”, the survivor count is 2 of 6.

Regarding `Cc1c(-c2ccccc2)nc(N)n1C`, the survivor count is, setting by setting: (dose: 100.0 mg/kg/injection, schedule: Q04DX002 (ip), vehicle: saline) 0 of 6; (dose: 200.0 mg/kg/injection, schedule: Q04DX002 (ip), vehicle: saline) 0 of 6; (dose: 400.0 mg/kg/injection, schedule: Q04DX002 (ip), vehicle: saline) 0 of 6.

As for `COC(=O)c1nc(=S)[nH]c(C(=O)OC)c1C(=O)c1cccc(O)c1`, the survivor count (dose: 240.0 mg/kg/injection, schedule: Q01DX005 (ip), vehicle: suspension in saline) is reported as 2 of 6.

For the molecule `CCOC(=O)C(=O)C(C#N)c1ccccc1CC#N` (stereo not drawn), the survivor count under setting [4] is on record as 0 of 6.

As for `O=C1C(Cl)=C(n2c(=O)oc3ccccc32)C(=O)c2ccccc21`, under setting [5], the survivor count is recorded as 3 of 6.

`c1nnc2c3c4c(sc3ncn12)CCCC4`: the survivor count under setting [4] is 1 of 6.

On to `NC(=O)CCCSC1=CC(=O)c2ccccc2C1=O`, for which the survivor count runs as follows: (dose: 25.0 mg/kg/injection, schedule: Q04DX002 (ip), vehicle: saline with Tween-80) 4 of 6; (dose: 50.0 mg/kg/injection, schedule: Q04DX002 (ip), vehicle: saline with Tween-80) 0 of 6; under setting [1], 0 of 6; under setting [2], 0 of 6; under setting [3], 0 of 6.

In the case of `O=C1CC(c2ccc(Cl)cc2Cl)Oc2ccc(Cl)cc21` (stereo not drawn), the survivor count under setting [6] is 6 of 6.

Turning to `Cc1cc(C)nc(NS(=O)(=O)c2ccc(N=c3c4ccccc4n(Cc4ccccc4)c4ccccc34)cc2)n1`, the survivor count under setting [4] was 0 of 6.

Consider `c1csc(-c2ccn[nH]2)c1`, for which the survivor count (dose: 120.0 mg/kg/injection, schedule: Q01DX005 (ip), vehicle: saline with Tween-80) is on record as 0 of 6 and the survivor count under setting [7] is 0 of 6.

`CN1C2CCC1C1N=NN(c3cc(C(F)(F)F)cc(C(F)(F)F)c3)C1(N1CCOCC1)C2` (stereo not drawn): under “dose: 200.0 mg/kg/injection, schedule: Q01DX005 (ip), vehicle: Klucel + Tween-80”, the survivor count was 6 of 6.

In the case of `CC(=O)Nc1cc2cc(NC=C(C#N)C#N)ccc2oc1=O`, the survivor count under setting [8] is reported as 6 of 6.

Turning to `Nc1nc([Se])c2ncn(C3CC(O)C(CO)O3)c2n1` (stereo not drawn), the T/C is 143 % of control [5 of 6 alive] (dose: 3.13 mg/kg/injection, schedule: Q01DX009 (ip), vehicle: Klucel (hydroxypropylcellulose) (HPC)); 138 and 147 % of control (dose: 6.25 mg/kg/injection, schedule: Q01DX009 (ip), vehicle: Klucel (hydroxypropylcellulose) (HPC)); 148 % of control (dose: 12.5 mg/kg/injection, schedule: Q01DX009 (ip), vehicle: Klucel (hydroxypropylcellulose) (HPC)).

For the molecule `Cc1nc2cc(N)c(Cl)cc2[nH]1`, the survivor count under setting [7] is reported as 0 of 6.

In the case of `OC1(C(O)(c2ccc(-c3ccccc3)cc2)c2ccc(-c3ccccc3)cc2)CCCCC1`, under setting [4], the survivor count is given as 6 of 6.

As to `CCN(CC)CCNc1cc(OC)c(C)c2cccnc12`, the survivor count under setting [9] is given as 0 of 5.

As for `NC(CO)C(=O)O.[Cl-].[Cl-].[Cl-].[Cl-].[Pt+2]` (stereo not drawn), under “dose: 25.0 mg/kg/injection, schedule: Q01DX009 (ip), vehicle: saline”, the T/C is 131 % of control.

As for `Cl/N=C1C=C/C(=N\Cl)C=C/1Cl`, the survivor count under setting [10] is 5 of 5; the survivor count (dose: 100.0 mg/kg/injection, schedule: Q01DX005 (ip), vehicle: saline with Tween-80) is on record as 0 of 5; the survivor count under setting [4] is reported as 0 of 5.

For the molecule `CCNC(=O)OOC(C)(C)C`, the survivor count (dose: 200.0 mg/kg/injection, schedule: Q01DX009 (ip), vehicle: saline) is given as 0 of 6.

`Cc1cc(NC(=S)SCc2ccc(F)cc2)ccc1Br`: the T/C is, setting by setting: (dose: 200.0 mg/kg/injection, schedule: Q01DX009 (ip), vehicle: Klucel (hydroxypropylcellulose) (HPC), evaluated on day 20) 125 % of control; (dose: 200.0 mg/kg/injection, schedule: Q01DX009 (ip), vehicle: Klucel (hydroxypropylcellulose) (HPC), evaluated on day 30) 131 % of control. Further, the survivor count (dose: 400.0 mg/kg/injection, schedule: Q01DX009 (ip), vehicle: Klucel (hydroxypropylcellulose) (HPC)) is given as 3 of 6.

Regarding `CCOC(=O)c1c[nH]c(=S)n(CCOC)c1=O`, the survivor count under setting [5] is 6 of 6.

With `Cc1cccc2c1nc(C)c1nc(-c3ccccc3)oc12`, the survivor count under setting [10] is given as 5 of 5.

With `COC(=O)c1nc(N)nc(C(=O)OC)c1C(=O)C(C)C`, the survivor count under setting [7] was 0 of 6.

For the molecule `O=C(OCCO)c1c(Cl)c(Cl)c(Cl)c(Cl)c1-c1c2cc(Br)c(=O)c(Br)c-2oc2c(Br)c(O)c(Br)cc12`, the survivor count (dose: 240.0 mg/kg/injection, schedule: Q01DX005 (ip), vehicle: saline) was 3 of 6.

Take `COC(=O)c1ccc(=O)c2nc3/c(=C/O)c(O)c(C)c(=O)c3[nH]c12`: the survivor count (dose: 25.0 mg/kg/injection, schedule: Q01DX005 (ip), vehicle: other) is listed as 0 of 6; the survivor count (dose: 50.0 mg/kg/injection, schedule: Q01DX005 (ip), vehicle: other) is reported as 0 of 6; the survivor count (dose: 100.0 mg/kg/injection, schedule: Q01DX005 (ip), vehicle: other) is 0 of 6.

Consider `COC(=O)c1cc2cc(OC)c(OC)cc2c2ccccc12`, for which the survivor count under setting [4] is 5 of 5.

As to `CCCCCCCCCCCCCCCC[N+](C)(C)C`, the T/C was 130 % of control (dose: 3.13 mg/kg/injection, schedule: Q01DX009 (ip), vehicle: saline); 125 and 130 % of control under setting [11]. Further, the survivor count is, setting by setting: under setting [11], 3 of 6; (dose: 12.5 mg/kg/injection, schedule: Q01DX009 (ip), vehicle: saline) 1 of 6; (dose: 12.5 mg/kg/injection, schedule: Q04DX003 (ip), vehicle: saline with Tween-80) 6 of 6; (dose: 25.0 mg/kg/injection, schedule: Q04DX003 (ip), vehicle: saline with Tween-80) 4 of 6; (dose: 100.0 mg/kg/injection, schedule: Q04DX003 (ip), vehicle: saline with Tween-80) 0 of 6; (dose: 200.0 mg/kg/injection, schedule: Q04DX003 (ip), vehicle: saline with Tween-80) 0 of 6. Where the note is “dose: 400.0 mg/kg/injection, schedule: Q04DX003 (ip), vehicle: saline with Tween-80”, the survivor count is recorded as 0 of 6.

Take `COc1ccc(Nc2c3ccccc3nc3ccccc23)cc1`: the T/C under setting [6] is 141 % of control.

As to `CC(=O)c1c(OCC(O)CN2CCN(C)CC2)cccc1OCC(O)CN1CCN(C)CC1` (stereo not drawn), the survivor count was 0 of 6 (dose: 50.0 mg/kg/injection, schedule: Q01DX005 (ip), vehicle: saline); 0 of 6 (dose: 100.0 mg/kg/injection, schedule: Q01DX005 (ip), vehicle: saline); 0 of 6 under setting [9].

`COc1cc([N+](=O)[O-])c(OC)cc1Nc1ccccc1C(=O)O`: under setting [8], the survivor count is 3 of 6.

For the molecule `Cc1ncc(CNC(=O)N(CCCl)N=O)c(N)n1`, the survivor count (dose: 50.0 mg/kg/injection, schedule: Q01DX001 (ip), vehicle: saline) was 6 of 10.

In the case of `O=[N+]([O-])c1ccc(N/N=C\C2OC3O[C@@H](C(Cl)(Cl)Cl)OC3C2O)c([N+](=O)[O-])c1` (stereo partly drawn), the survivor count is recorded as 6 of 6 under setting [1] and 6 of 6 under setting [3].

For `C=C(C)C(=NC(C)C)Nc1ccccc1Cl`, the survivor count (dose: 200.0 mg/kg/injection, schedule: Q01DX005 (ip), vehicle: Klucel (hydroxypropylcellulose) (HPC)) is 1 of 6.
